Assays:
[1] = general procedure: Fmoc solid-phase peptide synthesis; Rink Amide resin; HATU/DIEA; details: whole synthesis, scale 100 μmoles, several disulfide bridges
[2] = general procedure: Fmoc solid-phase peptide synthesis; Rink Amide resin (miniCD4 peptides); Serine preloaded Chlorotrityl resin, PS 2-CT-Ser(tBu) (PS1); HATU/DIEA; details: late stage modification step
[3] = general procedure: Fmoc solid-phase peptide synthesis; PS 2-CT-Ser(tBu); HATU/DIEA; details: whole synthesis, scale 100 μmoles

| Substance | isolated yield [1] | also measured |
| --- | --- | --- |
| Tpa-NLHK5CQLRCR11SLGLLGRCApTU1CACV-amide | 21% |  |
| Tpa-NLHK5CQLRCS11SLGLLGRCApTU1CACV-amide | 15% |  |
| Tpa-NLHFCQLRCK11SLGLLGRCApTU1CACV-amide | 6% |  |
| SATP-γAbu-PS1 |  | step yield [2]: 76% |
| Tpa-NLHK5CQLRCSSLGLLGRCAGS-Bip-CACV-amide | 21% |  |
| γAbu-PS1 |  | isolated yield [3]: 37% |
